PubChem BioAssay AID686943 – Drosophila RNAi Screening Center | 2013

Screen: 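Search across the genome for regulators of signalling from receptor tyrosine kinase to ERK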 (primary screen)
Cells: Drosophila S2R+ haemocyte-like cells expressing YFP-tagged ERK (Rolled)
Reagent: long dsRNA against Drosophila genes
Conditions: insulin stimulation versus unstimulated cells; dose and duration not given
Measurement: 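Per-plate z-scores of phospho-ERK immunostaining normalised to YFP-tagged ERK, measured with and without insulin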
Reading the numbers: replicate 1, z-score of dpERK with insulin: higher = more active ERK per ERK-YFP after insulin
In all, the deposit lists about 23,000 reagents; shown is an unselected part of those that have a named target and a result. 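Extra replicates exist only for a retested subset of genes; insulin dose and duration not given; both raised and lowered dpERK matter.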 Reagents against one gene are numbered here. A plus sign joins genes that one reagent is predicted to hit. Not all columns of the deposit are shown. The record does not give: the amount of reagent, the time to read-out.

no.	Target gene	dsRNA no.	replicate 1, z-score of dpERK with insulin
1	CG43260 (retired record)	1	0.25
2	Tpl94D (Transition protein-like 94D)	1	2.03
3	Roc1a (Regulator of cullins 1a)	1	-0.19
4	CG43861	1	-1
5	CG43861	2	0.07
6	CG6118	1	2.58
7	eIF4H2 (eukaryotic translation initiation factor 4H2)	1	0.33
8	RacGAP84C (Rac GTPase activating protein at 84C)	1	0.76
9	CG3764	1	-0.35
10	ms(2)35Ci (male sterile (2) 35Ci)	1	0.27
11	blp (black pearl)	1	0.97
12	Ilk (Integrin linked kinase)	1	0.11
13	alpha-Est1 (alpha-Esterase-1)	1	0.68
14	cta (concertina)	1	0.45
15	CG13185	1	0.69
16	c(3)G (crossover suppressor on 3 of Gowen)	1	0.21
17	gogo (golden goal)	1	-1.87
18	gogo (golden goal)	2	-0.62
19	CG8141	1	0.59
20	CG13991	1	0.15
21	CG33309	1	-0.84
22	CG10674	1	0.59
23	ClpX (Caseinolytic protease chaperone subunit)	1	-0.13
24	Alg2 (ALG2, alpha-1,3/1,6-mannosyltransferase)	1	-1.07
25	Gr64a (Gustatory receptor 64a)	1	0.37
26	CG3448	1	0.4
27	CG7692	1	0.25
28	CG13231	1	0.58
29	KrT95D (Krueppel target at 95D)	1	-0.61
30	CG10257	1	-0.35
31	tsh (teashirt)	1	1.42
32	CG11790	1	-0.11
33	snoRNA:Me28S-C3227a + snoRNA:Me18S-A1061 + snoRNA:Me28S-C3227b + 7 more	1	0.44
34	Nnp-1	1	-0.84
35	CG31230	1	-0.3
36	rho-4 (rhomboid-4)	1	-0.28
37	rho-4 (rhomboid-4)	2	0.29
38	CG18662	1	-0.41
39	ND-MWFE (NADH dehydrogenase (ubiquinone) MWFE subunit)	1	0.23
40	Moca-cyp	1	1.59
41	CG15071	1	0.4
42	Acyp (Acylphosphatase)	1	-0.24
43	SrpRalpha (Signal recognition particle receptor alpha)	1	2.06
44	CG3335	1	-0.38
45	CG14629	1	-1.59
46	Cipc (Clock interacting protein circadian)	1	-0.45
47	Cipc (Clock interacting protein circadian)	2	0.47
48	CG14072	1	0.44
49	Osi15 (Osiris 15)	1	0.62
50	CG34012	1	-0.68
51	bun (bunched)	1	0.27
52	bun (bunched)	2	1.43
53	bun (bunched)	3	-0.03
54	Polr2J (RNA polymerase II subunit J)	1	-0.49
55	CG42841	1	-0.9
56	eIF5 (eukaryotic translation initiation factor 5)	1	-0.59
57	chrb (charybde)	1	0.86
58	wntD (wnt inhibitor of Dorsal)	1	-1.57
59	Tsf3 (Transferrin 3)	1	0
60	CR9337 (pseudo)	1	0.15
61	thoc5	1	-0.23
62	CG4194	1	0.27
63	CG15141	1	0.29
64	CG15141	2	0.68
65	CG31823	1	0.51
66	ple (pale)	1	-1.5
67	Rpp21 (Ribonuclease P/MRP subunit p21)	1	0.06
68	Mst84Dd (Male-specific RNA 84Dd)	1	0.28
69	Oseg5 (Outer segment 5)	1	0.65
70	aux (auxilin)	1	-0.23
71	Achl (Achilles)	1	0.01
72	Cyp6a14 (Cytochrome P450 6a14)	1	0.25
73	CG32369	1	-0.1
74	CG32369	2	-0.38

Part of the list above, set out differently.
Ilk (Integrin linked kinase)
- replicate 1, z-score of dpERK with insulin: 0.11

alpha-Est1 (alpha-Esterase-1)
- replicate 1, z-score of dpERK with insulin: 0.68

cta (concertina)
- replicate 1, z-score of dpERK with insulin: 0.45

CG13185
- replicate 1, z-score of dpERK with insulin: 0.69

c(3)G (crossover suppressor on 3 of Gowen)
- replicate 1, z-score of dpERK with insulin: 0.21

gogo (golden goal) #1
- replicate 1, z-score of dpERK with insulin: -1.87

gogo (golden goal) #2
- replicate 1, z-score of dpERK with insulin: -0.62

CG8141
- replicate 1, z-score of dpERK with insulin: 0.59

CG13991
- replicate 1, z-score of dpERK with insulin: 0.15

CG33309
- replicate 1, z-score of dpERK with insulin: -0.84

CG10674
- replicate 1, z-score of dpERK with insulin: 0.59

ClpX (Caseinolytic protease chaperone subunit)
- replicate 1, z-score of dpERK with insulin: -0.13
